From patent US20150023958A1 (SAMSUNG ELECTRONICS, published 2015)
No constants are given. Whether binding was seen depends on the method and setting. Some binding calls cover weakened binding; strength is not graded here.

Legend:
Experiment in all cases: ELISA, ligand coated on plate
human VEGF-D = biological target: T1, human VEGF-D (human, UniProt O43915 93-201, limits assumed)
T1 construct: Bought protein (R&D Systems); also called Vascular endothelial growth factor D
T1 sequence (looked up): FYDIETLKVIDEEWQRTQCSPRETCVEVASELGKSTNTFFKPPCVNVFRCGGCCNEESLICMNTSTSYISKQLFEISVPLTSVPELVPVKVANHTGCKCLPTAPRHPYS

human VEGF-C = biological target: T2, human VEGF-C (human, UniProt P49767 103-227)
T2 construct: Bought protein (R&D Systems); also called VC; Vascular endothelial growth factor C
T2 sequence (looked up): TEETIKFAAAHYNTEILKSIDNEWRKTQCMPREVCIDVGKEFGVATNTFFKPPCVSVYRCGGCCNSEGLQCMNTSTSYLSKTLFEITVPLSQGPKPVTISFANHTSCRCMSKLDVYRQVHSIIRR

human Ang2 = biological target: T3, human Ang2 (human, UniProt O15123 19-496)
T3 construct: Bought protein (R&D Systems); also called A2; angiopoietin 2
T3 sequence (looked up): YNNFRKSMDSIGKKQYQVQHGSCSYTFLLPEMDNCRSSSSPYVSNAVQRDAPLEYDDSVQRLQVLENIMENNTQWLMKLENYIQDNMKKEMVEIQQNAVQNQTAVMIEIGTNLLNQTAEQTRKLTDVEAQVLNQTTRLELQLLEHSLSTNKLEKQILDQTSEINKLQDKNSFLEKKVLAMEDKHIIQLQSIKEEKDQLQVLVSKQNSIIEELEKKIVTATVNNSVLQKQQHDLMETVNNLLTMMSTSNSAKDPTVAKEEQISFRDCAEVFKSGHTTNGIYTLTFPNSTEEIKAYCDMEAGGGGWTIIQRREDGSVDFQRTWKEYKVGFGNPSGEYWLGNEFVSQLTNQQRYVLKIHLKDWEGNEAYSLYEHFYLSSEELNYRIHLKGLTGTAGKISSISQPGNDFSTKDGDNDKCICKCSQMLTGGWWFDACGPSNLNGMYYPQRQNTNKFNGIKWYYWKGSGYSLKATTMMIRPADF

binding (human VEGF-D): binds
binding (human VEGF-C): binds
binding (human Ang2): binds
B1: AV-body 2 (Fc fusion)
chain: AMDLILINSLPLVSDAETSLTCIASGWRPHEPITIGRDFEALMNQHQDPLEVTQDVTREWAKKVVWKREKASKINGAYFCEGRVRGEAIRIRTMKMRQQASFLPATLTMTVDKGDNVNISFKKVLIKEEDAVIYKNGSFIHSVPRHEVPDILEVHLPHAQPQDAGVYSARYIGGNLFTSAFTRLIVRRCEAQKWGPECNHLCTACMNNGVCHEDTGECICPPGFMGRTCEKACELHTFGRTCKERCSGQEGCKSYVFCLPDPYGCSCATGWKGLQCNEACHPGFYGPDCKLRCSCNNGEMCDRFQGCLCSPGWQGLQCEREGIEFMQSKVLLAVALWLCVETRAASDYRSPFIASVSDQHGVVYITENKNKTVVIPCLGSISNLNVSLCARYPEKRFVPDGNRISWDSKKGFTIPSYMISYAGMVFCEAKINDESYQSIMYIVVVVGEQPFINKPDTLLVNRKDAMWVPCLVSIPGLNVTLRSQSSVLWPDGQEVVWDDRRGMLVSTPLLHDALYLQCETTWGDQDFLSNPFLVHITG
notes: also called fusion polypeptide AV-body 2; Tie2-ECD/R2-2/R3-2-Fc; not shown: Fc fragment of human IgG1, fused to the C-terminus through the pFUSE-hIgG1-Fc1 vector (InvivoGen)
